Test results: patent US20190233475A1 (Bicycle, published 2019)
These are yes or no findings as the source states them, for the method shown. Some results given as binding are weak or reduced against the parent protein; the word gives no strength.

Amino acid sequences for entries named in this document (tags omitted). Residues count along the entry.
UniProt P14272, residues 391-638: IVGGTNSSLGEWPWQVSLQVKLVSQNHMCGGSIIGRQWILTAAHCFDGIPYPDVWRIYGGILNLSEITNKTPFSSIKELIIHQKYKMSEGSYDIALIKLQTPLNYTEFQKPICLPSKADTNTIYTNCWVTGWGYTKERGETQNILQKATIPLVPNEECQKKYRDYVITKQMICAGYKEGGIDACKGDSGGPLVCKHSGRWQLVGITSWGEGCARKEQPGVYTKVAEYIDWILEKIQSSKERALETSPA

Target: T1, rat plasma kallikrein (rat, UniProt P14272 391-638)
T1 construct: domain: catalytic domain; Expressed and purified in house; also called rat kallikrein; rPK
Assay: enzyme inhibition assay

Binder	binding
ACKNYWNPCDLIETTCA (three Cys linked to the TBMB (tris(bromomethyl)benzene) scaffold) [06-254-01]	binds
ACKNYWNPCDLIPGPCA (three Cys linked to the TBMB (tris(bromomethyl)benzene) scaffold) [06-254-02]	binds
ACKNYWNPCDLVMDTCA (three Cys linked to the TBMB (tris(bromomethyl)benzene) scaffold) [06-254-03]	binds
ACRNYWNPCTLINITCA (three Cys linked to the TBMB (tris(bromomethyl)benzene) scaffold) [06-255]	binds
ACPYPFRCLHENLCA (three Cys linked to the TBMB (tris(bromomethyl)benzene) scaffold) [06-258]	binds
ACNHWNPWCSVEPPVCA (three Cys linked to the TBMB (tris(bromomethyl)benzene) scaffold) [06-259-01]	binds
ACNTWNPWCPWDAPLCA (three Cys linked to the TBMB (tris(bromomethyl)benzene) scaffold) [06-259-02]	binds
ACNHWNPWCSADPPICA (three Cys linked to the TBMB (tris(bromomethyl)benzene) scaffold) [06-259-03]	binds
ACNYWNPWCPWDAPLCA (three Cys linked to the TBMB (tris(bromomethyl)benzene) scaffold) [06-259-04]	binds
ACNNFPFRCVYYPDICA (three Cys linked to the TBMB (tris(bromomethyl)benzene) scaffold) [06-261]	binds
ACKNYWNPCDLVTISCA (three Cys linked to the TBMB (tris(bromomethyl)benzene) scaffold) [06-254]	binds
